# Library screening results

The values are deposited in ChEMBL (CHEMBL3988442, “University of Dundee, Small-Polar-MMV Screening Library” (2021)).

Mtb growth Cornell: 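Whole-cell assay for inhibitors of Mycobacterium tuberculosis growth, labelled Cornell in the record; the read-out is not stated. The concentration is filed as 10 mM, unlikely as a test dose, so the dose is not known. Higher means stronger inhibition (inferred from two other growth screens of the library). About 53,000 compounds were tested under these conditions; 1.7% (about 900) showed 50% or more at least once.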
Mtb heat-shock: 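Assay on Mycobacterium tuberculosis, filed only as a heat shock assay from Cornell; the read-out is not stated. The concentration is filed as 10 mM, unlikely as a test dose, so the dose is not known. Higher reads as stronger inhibition (inferred: compounds with an IC50 in retests scored well above the rest). Size under these conditions: about 69,000 compounds, about 930 of them at 50% or above in at least one test.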

The filed quantity is “Percent Effect” (%). How 0% and 100% were set is not recorded. Most values in the screen are low, and negative values occur. This is an unselected part of the compounds tested.

structure: CC(C)NC(=O)CC(C)NCc1ccc(F)cc1Cl (configuration not stated)
Mtb growth Cornell: 16.91
Mtb heat-shock: -23.71

structure: Cc1nc(CCN)cc(N(C)Cc2nc3ccc(F)cc3[nH]2)n1
Mtb growth Cornell: -14.06
Mtb heat-shock: -3.868

structure: c1cncc(NCCNC2CSCCSC2)c1
Mtb growth Cornell: -32.37
Mtb heat-shock: -8.95

structure: Cn1cnnc1C1CCCN(C(=O)NCCc2ccccn2)C1 (configuration not stated)
Mtb growth Cornell: -17.57
Mtb heat-shock: 4.011

structure: c1c(CN2CCOCC2)nc2n1CCN(CC1CC1)C2
Mtb growth Cornell: -0.03011
Mtb heat-shock: 8.274

structure: Cc1cccc2nc(CN3CCCC3Cn3cncn3)cn12 (configuration not stated)
Mtb growth Cornell: -41.49
Mtb heat-shock: -15.33

structure: O=C(O)C1(n2ccc(-c3ccco3)n2)CCN(Cc2cccnc2)CC1
Mtb growth Cornell: 14.79
Mtb heat-shock: -19.45

structure: CC[C@H]1COCCN1C(=O)c1cnc(-c2ccccc2)nc1C
Mtb growth Cornell: 13.24
Mtb heat-shock: 2.961

structure: COc1ccccc1C1(CNc2snc(Cl)c2C#N)CCCC1
Mtb growth Cornell: 2.419
Mtb heat-shock: 2.871

structure: COc1ccc(Nc2ncccc2C#N)cc1N1CCCC1=O
Mtb growth Cornell: -9.798
Mtb heat-shock: -28.53

structure: [H][C@@]12CCN(c3ccc(C)nn3)C[C@]1(C(=O)N1CCCO1)CCO2
Mtb heat-shock: 12.93

structure: COCc1nc(C2CC2)nn1-c1cccc(F)c1
Mtb growth Cornell: 8.405
Mtb heat-shock: 20.55

structure: Cc1cn(Cc2ccc(F)cc2)nc1N
Mtb growth Cornell: 20.85
Mtb heat-shock: -3.801

structure: Fc1ccc(OCCCN2CC(n3cccn3)C2)cc1
Mtb growth Cornell: 28.51
Mtb heat-shock: -27.49

structure: Cc1nnc(C2Cc3ccccc3CN2Cc2ncc(C(C)(C)C)o2)o1 (configuration not stated)
Mtb heat-shock: -7.762

structure: COCCCN(Cc1ccccn1)S(=O)(=O)Cc1ccccc1
Mtb growth Cornell: 3.001
Mtb heat-shock: -3.768

structure: O=C(Cn1cccc(S(=O)(=O)N2CCCC2)c1=O)c1ccccc1Cl
Mtb growth Cornell: 25.74
Mtb heat-shock: 6.411

structure: CCN(CC)CCC(=O)NCc1cc2n(n1)CCN(C(=O)N(C)C)C2
Mtb growth Cornell: 9.512
Mtb heat-shock: -19.37

structure: CC(C)N(C)C(=O)C1CSCN1S(=O)(=O)c1cccs1 (configuration not stated)
Mtb heat-shock: -0.1523

structure: O=C(c1ccccc1C(F)(F)F)N1C[C@@H](CN2CCOCC2)[C@@H](CO)C1
Mtb growth Cornell: 9.846
Mtb heat-shock: -3.412

structure: CC(O)CN1CCC(CNCc2ccc(C(N)=O)cc2)CC1 (configuration not stated)
Mtb heat-shock: -7.153

structure: O=C(NCCc1cccs1)NC1CCN(c2ncccn2)CC1
Mtb growth Cornell: -49.21
Mtb heat-shock: -0.6771

structure: Cc1ccc(C(=O)NC2CCCN(S(C)(=O)=O)C2)c(=O)[nH]1 (configuration not stated)
Mtb growth Cornell: -24.65
Mtb heat-shock: 20.35

structure: COCc1ccc(C(=O)N2CCCN(Cc3ccc(F)cc3)CC2)s1
Mtb growth Cornell: -6.338
Mtb heat-shock: -14.67

structure: Cc1nc(C2CCCN2C(=O)CC2CCCC2)ncc1C(N)=O (configuration not stated)
Mtb growth Cornell: 2.513
Mtb heat-shock: -10.15

structure: c1cc(CCN2CCCC2CN2CCCC2)ccn1 (configuration not stated)
Mtb growth Cornell: -8.801
Mtb heat-shock: -32.73

structure: CCN(CC)C(=O)CN1CCCC1C(=O)N(C)C (configuration not stated)
Mtb growth Cornell: 7.749
Mtb heat-shock: -10.38

structure: COc1ccc(S(=O)(=O)NCCCc2nnc3nc(C)cc(C)n23)cc1
Mtb growth Cornell: 10.71
Mtb heat-shock: 2.973

structure: NC(=O)C1CCN(Cc2cc3c(cc2Br)OCCO3)C1 (configuration not stated)
Mtb growth Cornell: -11.53
Mtb heat-shock: -5.14

Repeated from the top, 2 entries:

With CC(C)NC(=O)CC(C)NCc1ccc(F)cc1Cl (configuration not stated) the screen gave Mtb growth Cornell: 16.91%; Mtb heat-shock: -23.71%.
With Cc1nc(CCN)cc(N(C)Cc2nc3ccc(F)cc3[nH]2)n1 the screen gave Mtb growth Cornell: -14.06%; Mtb heat-shock: -3.868%.